From patent publication US20250353912A1, “COMPOSITIONS AND METHODS COMPRISING ANTIBODIES THAT BIND TO COVALENT PEPTIDE CONJUGATES” (New York University, priority 2022, published 2025)
Results are given in words; binding and its absence hold for the method and conditions named. Some binding calls cover weakened binding; strength is not graded here.

Target: T1, poly-Ser peptide with central Cys conjugated to AMG-510
T1 sequence (peptide, AMG-510 on Cys; Lys-long chain biotin; C-terminal amide): SSSSCSSSSWK
Assay: yeast display, flow cytometry (FIG. 6)

- binding: binds
B1: P2AMR-12 (scFv, V domains shown)
VH: QVQLQESGPGLVKPSETLSLTCTVSGDSIINDPHYWGWIRQSPGKGLEWIGSTSHSGHTYFNPSLKSRVSMSIDVAKNQFSLNVRSVTAADTAVYYCARMRYYYSGTYPVYYFDYWGQGTLVTVSS
